# Article PMC10449909
# Sequences of proteins named here, by UniProt entry; tags and fusion partners are left off.
# UniProt Q13546: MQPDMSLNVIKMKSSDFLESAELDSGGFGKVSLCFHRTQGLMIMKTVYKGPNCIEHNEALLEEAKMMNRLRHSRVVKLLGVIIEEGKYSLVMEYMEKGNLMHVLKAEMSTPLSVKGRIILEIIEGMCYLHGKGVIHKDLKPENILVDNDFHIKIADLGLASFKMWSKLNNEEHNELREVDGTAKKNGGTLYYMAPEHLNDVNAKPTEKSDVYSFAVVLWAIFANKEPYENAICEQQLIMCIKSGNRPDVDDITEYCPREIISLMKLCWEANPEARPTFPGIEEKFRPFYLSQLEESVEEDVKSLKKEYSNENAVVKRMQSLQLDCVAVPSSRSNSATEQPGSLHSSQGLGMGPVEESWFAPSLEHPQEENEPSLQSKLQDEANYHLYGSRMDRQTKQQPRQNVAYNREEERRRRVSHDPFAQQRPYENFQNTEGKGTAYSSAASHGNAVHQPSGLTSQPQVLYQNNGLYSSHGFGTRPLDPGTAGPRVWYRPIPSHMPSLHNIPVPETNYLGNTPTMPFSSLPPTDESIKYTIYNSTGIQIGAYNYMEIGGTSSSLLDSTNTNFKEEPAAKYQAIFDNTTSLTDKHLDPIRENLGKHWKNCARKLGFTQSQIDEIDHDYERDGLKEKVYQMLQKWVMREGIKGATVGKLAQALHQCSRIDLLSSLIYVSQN
# UniProt Q9Y572: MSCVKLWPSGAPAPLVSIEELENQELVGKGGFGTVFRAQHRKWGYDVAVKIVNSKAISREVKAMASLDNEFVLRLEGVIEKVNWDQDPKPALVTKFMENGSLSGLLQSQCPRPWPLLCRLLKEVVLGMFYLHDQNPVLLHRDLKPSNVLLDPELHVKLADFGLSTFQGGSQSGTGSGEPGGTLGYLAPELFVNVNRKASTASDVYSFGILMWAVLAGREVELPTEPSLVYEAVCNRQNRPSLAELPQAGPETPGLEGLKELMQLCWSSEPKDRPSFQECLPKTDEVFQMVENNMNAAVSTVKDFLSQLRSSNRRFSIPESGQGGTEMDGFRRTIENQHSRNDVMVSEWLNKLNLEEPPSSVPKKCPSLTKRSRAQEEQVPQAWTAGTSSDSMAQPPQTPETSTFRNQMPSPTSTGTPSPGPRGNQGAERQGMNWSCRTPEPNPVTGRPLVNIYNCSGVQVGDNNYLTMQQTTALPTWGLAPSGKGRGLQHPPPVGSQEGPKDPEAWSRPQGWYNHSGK
# Results are given in words; binding and its absence hold for the method and conditions named. Binding seen in cells or lysates may run through a third protein. Some binding calls cover weakened binding; strength is not graded here.
# Molecular target: receptor-interacting protein kinase 1 (RIPK1), human (human (endogenous in HT29)) (UniProt Q13546)
# Assay: co-IP; endogenous RIPK1 immunoprecipitated with anti-RIPK1 antibody (overnight, 4 °C; Protein A/G agarose) from RIPA lysates of L929, MDF or HT29 cells after necroptosis induction, cells pretreated with DMSO, Vemurafenib or Nec-1; RIPK3 detected by western blot
substance,measurement,value
"receptor-interacting protein kinase 3 (RIPK3), human (from UniProt Q9Y572 1-518)",binding,binds
